Source: US20110230504A1, “ALLEVIATING DISORDERS WITH COMBINING AGENTS THAT INCREASE EPOXYGENATED FATTY ACIDS AND AGENTS THAT INCREASE cAMP” (The Regents Of The University Of California Office Of …, priority 2008, published 2011)
For at least one compound, name, drawing or mass did not settle the structure.

How the values were obtained:
[1] = system: rats; experiment: Thermal hindpaw withdrawal latency (Hargreaves), non-inflammatory model; format: in vivo, rat; details: s.c.
Protocol: (§1) Behavioral nociceptive testing was conducted by assessing thermal hindpaw withdrawal latencies (TWL) using a commercial Hargreaves apparatus (IITC, Woodland Hills, Calif.), or by determining mechanical hind paw withdrawal thresholds (MWT) using a digital paw pressure Randall-Selitto instrument (IITC, Woodland Hills, Calif.). On the day of the experiment, rats were transferred to a quiet room, acclimated for 1 hour and their baseline responses were measured. In pilot experiments, the intensity of the thermal stimulus was set to produce a baseline TWL of 7-8 sec. Baseline mechanical hind paw withdrawal thresholds varied between 60-70 grams of force. Immediately following baseline determination all compounds were administered subcutaneously in the following vehicles; Inhibitors of sEH were formulated in trans free oleate and administered in a total volume of 300 µL Rolipram, picrotoxin, flucanozole, miconazole and finasteride were all dissolved in a sterile saline solution containing 25% DMSO and administered in a volume of 50 μl. […] The instrument was set to the maximum holding (MH) mode and the readout that elicited a hind paw withdrawal was designated as the threshold. […] Open field activity was quantified using a Plexiglas chamber (40×40×30 cm, length×width×height) imprinted with a 10×10 cm grid. […] The number of crossings were recorded when both hind paws crossed into a neighboring cell. […]

[2] = system: rats; experiment: Mechanical hind paw withdrawal threshold (Randall-Selitto), non-inflammatory model; format: in vivo, rat; details: dose dependent
Protocol: as §1

Compound	effect on the dose-effect curve of rolipram (antinociception) [1]	mechanical withdrawal threshold [2]
Cc1ccc(-c2cc(C(F)(F)F)nn2-c2ccc(S(N)(=O)=O)cc2)cc1 [celecoxib]	failed to change	
Cn1c(=O)c2c(ncn2C)n(C)c1=O [caffeine]		increased
